In publication PMC10318525:
No constants are given. Whether binding was seen depends on the method and setting. Binding seen in cells or lysates may run through a third protein. Some binding calls cover weakened binding; strength is not graded here.

The chains behind the UniProt entries cited, without tags or fusion partners. Where a name states a change or a piece, a line headed by the entry shows the natural chain unless it says otherwise. Residues count along the entry.
UniProt Q9UNE7: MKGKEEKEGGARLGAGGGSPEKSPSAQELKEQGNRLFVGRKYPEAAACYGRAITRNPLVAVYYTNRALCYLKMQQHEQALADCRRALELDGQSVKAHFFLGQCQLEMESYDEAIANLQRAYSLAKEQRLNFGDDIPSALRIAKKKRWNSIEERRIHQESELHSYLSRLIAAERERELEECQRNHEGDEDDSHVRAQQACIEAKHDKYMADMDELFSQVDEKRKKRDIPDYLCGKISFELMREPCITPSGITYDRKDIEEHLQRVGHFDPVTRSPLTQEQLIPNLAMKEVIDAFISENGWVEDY
GST-CHIP (1–197): residues 1-197 of Q9UNE7
GST-CHIP (143–303): residues 143-303 of Q9UNE7
UniProt Q16665: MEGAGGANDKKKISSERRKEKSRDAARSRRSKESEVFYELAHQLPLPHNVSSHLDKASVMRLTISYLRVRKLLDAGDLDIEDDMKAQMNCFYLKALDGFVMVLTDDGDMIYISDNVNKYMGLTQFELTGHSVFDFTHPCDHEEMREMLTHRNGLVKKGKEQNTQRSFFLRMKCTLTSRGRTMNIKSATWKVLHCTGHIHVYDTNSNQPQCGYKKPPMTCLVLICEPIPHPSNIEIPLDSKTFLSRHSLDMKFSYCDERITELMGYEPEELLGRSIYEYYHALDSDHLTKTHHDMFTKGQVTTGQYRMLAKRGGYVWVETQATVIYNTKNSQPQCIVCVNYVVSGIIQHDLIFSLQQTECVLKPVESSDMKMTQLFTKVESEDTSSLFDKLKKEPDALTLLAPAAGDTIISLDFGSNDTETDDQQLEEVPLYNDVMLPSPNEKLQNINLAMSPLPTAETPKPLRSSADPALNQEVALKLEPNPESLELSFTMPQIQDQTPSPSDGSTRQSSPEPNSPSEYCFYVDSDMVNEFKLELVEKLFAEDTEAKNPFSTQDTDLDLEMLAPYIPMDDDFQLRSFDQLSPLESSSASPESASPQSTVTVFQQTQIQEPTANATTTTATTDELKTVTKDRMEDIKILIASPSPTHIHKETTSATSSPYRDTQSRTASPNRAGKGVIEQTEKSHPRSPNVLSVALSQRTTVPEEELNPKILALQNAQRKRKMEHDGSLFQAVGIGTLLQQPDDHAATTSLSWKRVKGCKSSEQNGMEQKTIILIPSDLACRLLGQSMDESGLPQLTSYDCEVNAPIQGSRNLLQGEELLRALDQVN
GST-HIF-1α (201–329): residues 201-329 of Q16665
GST-HIF-1α (330–427): residues 330-427 of Q16665
GST-HIF-1α (428–531): residues 428-531 of Q16665
GST-HIF-1α (532–826): residues 532-826 of Q16665
UniProt P61758: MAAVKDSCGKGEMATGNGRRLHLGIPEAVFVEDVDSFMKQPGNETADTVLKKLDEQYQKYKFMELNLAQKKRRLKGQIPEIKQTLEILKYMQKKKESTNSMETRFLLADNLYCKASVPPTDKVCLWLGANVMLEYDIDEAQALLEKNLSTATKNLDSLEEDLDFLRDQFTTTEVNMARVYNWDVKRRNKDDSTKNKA

How the values were obtained:
GST-CHIP (143–303) = GST-CHIP (143–303) (UniProt Q9UNE7); assay: pull-down; GST or GST fusion protein from E. coli BL21 on Glutathione Sepharose 4B, mixed with HEK293T/17 cell lysate for 2 h at 4 °C; lysis buffer 50 mM Tris pH 7.5, 150 mM NaCl, 1 mM EDTA, 10% glycerol, 1% Triton X-100; bound proteins detected by blot; only the target purified
GST-CHIP (1–197) = GST-CHIP (1–197) (UniProt Q9UNE7); assay: as above
GST-HIF-1α (201–329) = GST-HIF-1α (201–329) (UniProt Q16665); assay: as above
GST-HIF-1α (330–427) = GST-HIF-1α (330–427) (UniProt Q16665); assay: as above
GST-HIF-1α (428–531) = GST-HIF-1α (428–531) (UniProt Q16665); assay: as above
GST-HIF-1α (532–826) = GST-HIF-1α (532–826) (UniProt Q16665); assay: as above
[1] = target: HA-tagged HIF-1α (P402A/P564A) (human) (UniProt Q16665); assay: co-IP; transiently transfected HEK293T/17 (for VBP1-Myc and Flag-HIF-1α also HeLa) cells, tagged proteins, reciprocal where indicated; IP lysis buffer 50 mM Tris pH 7.5, 150 mM NaCl, 1 mM EDTA, 10% glycerol, 1% Triton X-100; antibody overnight at 4 °C, Protein-A/G beads 6 h at 4 °C
Flag-tagged VBP1 = Flag-tagged VBP1 (UniProt P61758); assay: as above
GST-VBP1 = GST-VBP1 (UniProt P61758); assay: pull-down; GST or GST fusion protein from E. coli BL21 on Glutathione Sepharose 4B, mixed with HEK293T/17 cell lysate for 2 h at 4 °C; lysis buffer 50 mM Tris pH 7.5, 150 mM NaCl, 1 mM EDTA, 10% glycerol, 1% Triton X-100; bound proteins detected by blot; only the target purified
Flag-HIF-1α = Flag-HIF-1α (UniProt Q16665); assay: co-IP; transiently transfected HEK293T/17 (for VBP1-Myc and Flag-HIF-1α also HeLa) cells, tagged proteins, reciprocal where indicated; IP lysis buffer 50 mM Tris pH 7.5, 150 mM NaCl, 1 mM EDTA, 10% glycerol, 1% Triton X-100; antibody overnight at 4 °C, Protein-A/G beads 6 h at 4 °C
[2] = target: endogenous VBP1 (human (endogenous in HEK293T/17)) (UniProt P61758); assay: co-IP; endogenous proteins of HEK293T/17 cells; anti-VBP1 antibody used for IP

Question: How did the binding (GST-CHIP (143–303)) turn out when “Flag-tagged VBP1 (from UniProt P61758 1-197)” was run?
Answer: binds

Question: And the binding (GST-CHIP (1–197))?
Answer: binds

Question: And the binding (GST-HIF-1α (201–329))?
Answer: binds

Question: What about the binding (GST-HIF-1α (330–427)) of the same substance?
Answer: binds

Question: And the binding (GST-HIF-1α (428–531))?
Answer: binds

Question: And the binding (GST-HIF-1α (532–826))?
Answer: binds

Question: What about the binding [1] of the same substance?
Answer: binds

Question: For “HA-tagged CHIP (from UniProt Q9UNE7 1-303)”, which binding (Flag-tagged VBP1) is on record?
Answer: binds

Question: Which binding (GST-VBP1) does the source give for “HIF-1α (in the HEK293T/17 lysate of the GST-VBP1 pull-down) (from UniProt Q16665 1-826)” here?
Answer: binds

Question: Which binding (Flag-HIF-1α) does the source give for VBP1-Myc (from UniProt P61758 1-197) here?
Answer: binds

Question: “endogenous CHIP (from UniProt Q9UNE7 1-303)” was tested. Which binding [2] did it give?
Answer: binds

Question: Which binding [2] does the source give for “endogenous HIF-1α (from UniProt Q16665 1-826)” here?
Answer: binds
